Measurements as given in article PMC5633398.
These are yes or no findings as the source states them, for the method shown. Binding seen in cells or lysates may run through a third protein. Binding can be weak; no strength is given. Sequences can lack the tags named with a protein.

Target: T1, Bcy1-NV (Bcy1 tagged C-terminally with the N-terminal segment of yEmVenus) (C. albicans) (UniProt Q9HEW1)
T1 sequence: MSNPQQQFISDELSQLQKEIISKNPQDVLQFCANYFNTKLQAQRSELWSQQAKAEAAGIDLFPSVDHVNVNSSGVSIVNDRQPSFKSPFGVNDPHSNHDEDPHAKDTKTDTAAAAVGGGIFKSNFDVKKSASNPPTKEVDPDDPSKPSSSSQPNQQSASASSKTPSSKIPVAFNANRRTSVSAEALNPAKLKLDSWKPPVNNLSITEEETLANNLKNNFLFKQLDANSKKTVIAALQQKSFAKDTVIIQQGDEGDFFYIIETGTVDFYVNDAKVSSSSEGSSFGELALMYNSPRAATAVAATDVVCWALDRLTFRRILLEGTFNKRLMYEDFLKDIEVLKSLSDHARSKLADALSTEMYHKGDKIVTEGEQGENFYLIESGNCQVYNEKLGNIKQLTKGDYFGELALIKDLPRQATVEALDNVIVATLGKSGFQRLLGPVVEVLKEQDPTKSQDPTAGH
Experiment: split reporter; BiFC with split yEmVenus in C. albicans SN152, MET3 promoter; confocal microscopy of living cells in the midexponential phase, SC -methionine -cysteine, 2% glucose (Bcy1-Tpk strains at 37°); fluorescence intensity per pixel quantified

Q: “Tpk2-CV (Tpk2 tagged C-terminally with the C-terminal segment of yEmVenus) (C. albicans) (enzyme)” was tested. Which binding did it give?
A: Its binding is “binds”.
